Assay [1] addresses T1, Mms19::F[3] (S. cerevisiae) (UniProt P40469).
T1 sequence: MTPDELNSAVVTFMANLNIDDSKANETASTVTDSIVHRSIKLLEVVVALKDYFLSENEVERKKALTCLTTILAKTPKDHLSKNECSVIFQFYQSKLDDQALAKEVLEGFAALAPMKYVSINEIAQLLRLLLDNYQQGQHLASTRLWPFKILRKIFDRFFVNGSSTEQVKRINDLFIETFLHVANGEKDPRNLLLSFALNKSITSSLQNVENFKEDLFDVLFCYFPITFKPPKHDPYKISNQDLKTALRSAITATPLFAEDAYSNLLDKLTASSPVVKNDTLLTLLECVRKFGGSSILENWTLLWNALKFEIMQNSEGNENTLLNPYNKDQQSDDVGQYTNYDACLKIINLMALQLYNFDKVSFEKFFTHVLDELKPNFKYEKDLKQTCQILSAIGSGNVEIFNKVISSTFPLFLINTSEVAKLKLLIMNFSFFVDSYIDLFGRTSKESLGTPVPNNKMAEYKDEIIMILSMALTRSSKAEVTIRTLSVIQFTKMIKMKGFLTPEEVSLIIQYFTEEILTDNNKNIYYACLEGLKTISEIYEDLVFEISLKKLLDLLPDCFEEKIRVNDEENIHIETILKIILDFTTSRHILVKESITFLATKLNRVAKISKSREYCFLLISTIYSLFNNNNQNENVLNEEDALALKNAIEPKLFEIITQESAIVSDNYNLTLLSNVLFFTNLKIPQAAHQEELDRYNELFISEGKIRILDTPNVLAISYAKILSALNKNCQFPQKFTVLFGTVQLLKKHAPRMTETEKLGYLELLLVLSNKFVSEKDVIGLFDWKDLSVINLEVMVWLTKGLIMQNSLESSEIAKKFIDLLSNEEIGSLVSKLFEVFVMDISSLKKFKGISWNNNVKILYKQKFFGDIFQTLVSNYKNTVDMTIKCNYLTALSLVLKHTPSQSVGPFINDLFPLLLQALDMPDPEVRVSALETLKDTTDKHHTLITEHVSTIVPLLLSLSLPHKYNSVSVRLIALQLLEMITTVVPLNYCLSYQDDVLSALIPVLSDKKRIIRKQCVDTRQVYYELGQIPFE
Briefly: split reporter; mDHFR protein-fragment complementation assay (PCA) in living S. cerevisiae; fragments F[1,2] and F[3] fused at the C-termini; read-out growth or colony size on medium with 200 µg/ml methotrexate (serial dilutions, robotic pinning, genome-wide rPCA screens).

Assay [2] concerns the target Cia2-Myc (S. cerevisiae). The experiment in a line: co-IP; yeast whole-cell extracts in buffer B60; IP with anti-myc antibody and protein A-G-agarose, washes up to 270 mM potassium acetate; blots with anti-GFP or anti-TAP; cells depleted of Cia1 (GAL1-CIA1 in 2% glucose for 24 h) or carrying Ts alleles of CIA1, DNA2, POL3 or SPC24 grown 24 h at 35°C, against controls.

Results are given in words; binding and its absence hold for the method and conditions named. Binding seen in cells or lysates may run through a third protein. Binding can be weak; no strength is given. For some of these results: Tags and fused reporters may be left off the sequences shown.

For the molecule Cia2-C161A::F[3] (S. cerevisiae), the binding result in assay [1] was “binds”.
The same measure, in the same setting: the same measure for Cia2::F[1,2] (S. cerevisiae): “binds”.

B1: Mms19-GFP (protein, UniProt P40469 1-1032)
chain: MTPDELNSAVVTFMANLNIDDSKANETASTVTDSIVHRSIKLLEVVVALKDYFLSENEVERKKALTCLTTILAKTPKDHLSKNECSVIFQFYQSKLDDQALAKEVLEGFAALAPMKYVSINEIAQLLRLLLDNYQQGQHLASTRLWPFKILRKIFDRFFVNGSSTEQVKRINDLFIETFLHVANGEKDPRNLLLSFALNKSITSSLQNVENFKEDLFDVLFCYFPITFKPPKHDPYKISNQDLKTALRSAITATPLFAEDAYSNLLDKLTASSPVVKNDTLLTLLECVRKFGGSSILENWTLLWNALKFEIMQNSEGNENTLLNPYNKDQQSDDVGQYTNYDACLKIINLMALQLYNFDKVSFEKFFTHVLDELKPNFKYEKDLKQTCQILSAIGSGNVEIFNKVISSTFPLFLINTSEVAKLKLLIMNFSFFVDSYIDLFGRTSKESLGTPVPNNKMAEYKDEIIMILSMALTRSSKAEVTIRTLSVIQFTKMIKMKGFLTPEEVSLIIQYFTEEILTDNNKNIYYACLEGLKTISEIYEDLVFEISLKKLLDLLPDCFEEKIRVNDEENIHIETILKIILDFTTSRHILVKESITFLATKLNRVAKISKSREYCFLLISTIYSLFNNNNQNENVLNEEDALALKNAIEPKLFEIITQESAIVSDNYNLTLLSNVLFFTNLKIPQAAHQEELDRYNELFISEGKIRILDTPNVLAISYAKILSALNKNCQFPQKFTVLFGTVQLLKKHAPRMTETEKLGYLELLLVLSNKFVSEKDVIGLFDWKDLSVINLEVMVWLTKGLIMQNSLESSEIAKKFIDLLSNEEIGSLVSKLFEVFVMDISSLKKFKGISWNNNVKILYKQKFFGDIFQTLVSNYKNTVDMTIKCNYLTALSLVLKHTPSQSVGPFINDLFPLLLQALDMPDPEVRVSALETLKDTTDKHHTLITEHVSTIVPLLLSLSLPHKYNSVSVRLIALQLLEMITTVVPLNYCLSYQDDVLSALIPVLSDKKRIIRKQCVDTRQVYYELGQIPFE
Consider B1, for which the binding result in assay [2] is on record as “binds”.

B2: Mms19-TAP (protein, UniProt P40469 1-1032)
chain: MTPDELNSAVVTFMANLNIDDSKANETASTVTDSIVHRSIKLLEVVVALKDYFLSENEVERKKALTCLTTILAKTPKDHLSKNECSVIFQFYQSKLDDQALAKEVLEGFAALAPMKYVSINEIAQLLRLLLDNYQQGQHLASTRLWPFKILRKIFDRFFVNGSSTEQVKRINDLFIETFLHVANGEKDPRNLLLSFALNKSITSSLQNVENFKEDLFDVLFCYFPITFKPPKHDPYKISNQDLKTALRSAITATPLFAEDAYSNLLDKLTASSPVVKNDTLLTLLECVRKFGGSSILENWTLLWNALKFEIMQNSEGNENTLLNPYNKDQQSDDVGQYTNYDACLKIINLMALQLYNFDKVSFEKFFTHVLDELKPNFKYEKDLKQTCQILSAIGSGNVEIFNKVISSTFPLFLINTSEVAKLKLLIMNFSFFVDSYIDLFGRTSKESLGTPVPNNKMAEYKDEIIMILSMALTRSSKAEVTIRTLSVIQFTKMIKMKGFLTPEEVSLIIQYFTEEILTDNNKNIYYACLEGLKTISEIYEDLVFEISLKKLLDLLPDCFEEKIRVNDEENIHIETILKIILDFTTSRHILVKESITFLATKLNRVAKISKSREYCFLLISTIYSLFNNNNQNENVLNEEDALALKNAIEPKLFEIITQESAIVSDNYNLTLLSNVLFFTNLKIPQAAHQEELDRYNELFISEGKIRILDTPNVLAISYAKILSALNKNCQFPQKFTVLFGTVQLLKKHAPRMTETEKLGYLELLLVLSNKFVSEKDVIGLFDWKDLSVINLEVMVWLTKGLIMQNSLESSEIAKKFIDLLSNEEIGSLVSKLFEVFVMDISSLKKFKGISWNNNVKILYKQKFFGDIFQTLVSNYKNTVDMTIKCNYLTALSLVLKHTPSQSVGPFINDLFPLLLQALDMPDPEVRVSALETLKDTTDKHHTLITEHVSTIVPLLLSLSLPHKYNSVSVRLIALQLLEMITTVVPLNYCLSYQDDVLSALIPVLSDKKRIIRKQCVDTRQVYYELGQIPFE
For the molecule B2, the binding entry in assay [2] was “binds”.
